From publication PMC5988326
No constants are given. Whether binding was seen depends on the method and setting.

Biological target: soluble recombinant intra-melanosomal domain of human tyrosinase (residues 19-469) (human) (UniProt P14679)
Assay: atomic force microscopy; hTyrCtr deposited on APS-modified mica, rinsed, dried, imaged in ambient air in tapping mode; particle volume and height distributions (N = 383); both purified

binding: no binding
B1: soluble recombinant intra-melanosomal domain of human tyrosinase (residues 19-469) (domain or fragment, UniProt P14679 19-469)
chain: HFPRACVSSKNLMEKECCPPWSGDRSPCGQLSGRGSCQNILLSNAPLGPQFPFTGVDDRESWPSVFYNRTCQCSGNFMGFNCGNCKFGFWGPNCTERRLLVRRNIFDLSAPEKDKFFAYLTLAKHTISSDYVIPIGTYGQMKNGSTPMFNDINIYDLFVWMHYYVSMDALLGGSEIWRDIDFAHEAPAFLPWHRLFLLRWEQEIQKLTGDENFTIPYWDWRDAEKCDICTDEYMGGQHPTNPNLLSPASFFSSWQIVCSRLEEYNSHQSLCNGTPEGPLRRNPGNHDKSRTPRLPSSADVEFCLSLTQYESGSMDKAANFSFRNTLEGFASPLTGIADASQSSMHNALHIYMNGTMSQVQGSANDPIFLLHHAFVDSIFEQWLRRHRPLQEVYPEANAPIGHNRESYMVPFIPLYRNGDFFISSKDLGYDYSYLQDSDPDSFQDYIKSYLE
